Source: PubChem BioAssay AID1259326 (Drosophila RNAi Screening Center, 2017)

Assay: 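Knock-downs that shift cellular ATP after a high zinc chloride dose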
Cells: Drosophila S2R+ cells
Reagents: long dsRNA against Drosophila genes
Timing: about 5 days (4 days of RNAi, then 1 day of zinc)
Conditions: zinc chloride added to 15 mM final for one day
Read-out: 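Cellular ATP measured by luciferase light as a viable-cell proxy, after 4 days of RNAi and 1 day in 15 mM zinc chloride; replicate z-scores averaged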
Scale: averaged z-score: higher = more ATP than other wells, i.e. more surviving cells, after zinc; ATP luminescence: higher = more ATP, i.e. more surviving cells
Call rule: 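Active if the averaged z-score exceeds 1.5 or falls under -1.5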
This is an unselected part of 573 reagents. 39 of all reagents (6.8%) were called active. 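All actives have raised ATP, meaning more surviving cells; in these data active calls sit at averaged z-scores near 1.5 or above.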 The raw values are shown without normalisation. The record does not give: the amount of reagent.

gene knocked down,DRSC id,averaged z-score,"ATP luminescence, replicate 1","ATP luminescence, replicate 2",call
SMC3 (GeneID 32627),DRSC20227,0.624,84609,1.09e5,inactive
SMC3 (GeneID 32627),DRSC41163,0.212,76307,85381,inactive
Rpt3R (GeneID 41190),DRSC16501,-0.147,67423,76668,inactive
Rpt3R (GeneID 41190),DRSC25067,0.0154,97456,83855,inactive
Rpt3R (GeneID 41190),DRSC36329,-0.381,78606,58958,inactive
mahj (GeneID 37462),DRSC04053,1.55,84815,1.19e5,active
mahj (GeneID 37462),DRSC32025,2.3,1.30e5,1.16e5,active
mahj (GeneID 37462),DRSC32026,1.75,97144,1.13e5,active
CG31855 (GeneID 318983),DRSC02968,-0.199,98042,65914,inactive
CG31855 (GeneID 318983),DRSC25858,-0.21,80613,71829,inactive
CG31855 (GeneID 318983),DRSC41181,-0.0573,66720,76668,inactive
Pgm1 (GeneID 44010),DRSC10490,0.0614,74541,71351,inactive
Pgm1 (GeneID 44010),DRSC28517,-0.302,77251,72620,inactive
Pgm1 (GeneID 44010),DRSC40453,-0.0892,83529,74455,inactive
CG9485 (GeneID 37435),DRSC04557,-0.526,74352,95400,inactive
CG9485 (GeneID 37435),DRSC41207,-0.175,65451,75673,inactive
l(3)80Fj (GeneID 3355040),DRSC20986,0.357,1.02e5,85467,inactive
l(3)80Fj (GeneID 3355040),DRSC38770,-0.0402,83472,70013,inactive
l(3)80Fj (GeneID 3355040),DRSC41175,-0.128,64670,80424,inactive
S6k (GeneID 38654),DRSC11276,-0.137,96035,76282,inactive
S6k (GeneID 38654),DRSC36709,0.575,87560,90905,inactive
Rab14 (GeneID 34840),DRSC03403,-0.41,88555,65811,inactive
Rab14 (GeneID 34840),DRSC28941,-0.131,78160,72071,inactive
Rab14 (GeneID 34840),DRSC41235,-0.0664,70150,78554,inactive
Pfas (GeneID 33847),DRSC03480,-0.459,70253,90510,inactive
Pfas (GeneID 33847),DRSC41147,-0.157,64165,75261,inactive
Mtpbeta (GeneID 37784),DRSC04663,-0.766,82602,88383,inactive
Mtpbeta (GeneID 37784),DRSC41251,-0.149,60760,80750,inactive
Mtpbeta (GeneID 37784),DRSC41252,0.282,73613,77304,inactive
Cyt-c1L (GeneID 43457),DRSC22096,0.292,97990,79926,inactive
Cyt-c1L (GeneID 43457),DRSC28229,0.215,87972,80981,inactive
Cyt-c1L (GeneID 43457),DRSC41172,0.0197,70596,80956,inactive
Rpt6R (GeneID 43635),DRSC15431,0.074,79755,98392,inactive
Rpt6R (GeneID 43635),DRSC41241,-0.216,66428,76871,inactive
Chc (GeneID 32537),DRSC20229,1.61,1.46e5,1.07e5,active
Chc (GeneID 32537),DRSC34418,1.36,1.21e5,93547,inactive
Chc (GeneID 32537),DRSC34419,0.865,86188,81762,inactive
Synj (GeneID 37517),DRSC04526,-0.158,85295,75553,inactive
Synj (GeneID 37517),DRSC36874,-0.427,77542,54167,inactive
Synj (GeneID 37517),DRSC36875,-0.377,62994,71591,inactive
Ggamma30A (GeneID 45234),DRSC02715,-0.169,93049,79172,inactive
Ggamma30A (GeneID 45234),DRSC03331,-0.18,82945,71025,inactive
Ggamma30A (GeneID 45234),DRSC41223,-0.398,66428,66771,inactive
mbc (GeneID 42817),DRSC16995,-0.727,83784,66000,inactive
mbc (GeneID 42817),DRSC36492,-0.445,74970,71265,inactive
mbc (GeneID 42817),DRSC41227,-0.264,61782,75913,inactive
